# According to the supplement of paper PMC9877034:
# Structures can show the parent of a compound that is named as a salt. Over roughly 1,000 compounds, “cFRET/donor change relative to DMSO, normalised to beta-lapachone positive control (supercomplex I-IV assembly)” has its median near 0.18; the lowest 2% begin near -1. This is one part of the list.
# Tested on: C2C12 (NDUFB8-AcGFP / COX8A-DsRed-Monomer FRET reporter)
# Assay: cFRET/donor change relative to DMSO, normalised to beta-lapachone positive control (supercomplex I-IV assembly) (fraction of beta-lapachone effect); higher = more respiratory supercomplex assembly
# Conditions: 40 µM; 24 h
# Procedure: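 Cells were treated with 40 uM compound for 24 h and imaged on an IN Cell Analyzer 6000. Corrected FRET was divided by donor signal (cFRET/donor) and measured in two replicate experiments. The score is (mean cFRET/donor of compound - mean DMSO) / (mean beta-lapachone 40 uM - mean DMSO). Compounds flagged for prominent cell death, abnormal morphology or decreased cell number were excluded.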
row,SMILES,cFRET/donor change
1,CSc1ccc(C(=O)c2[nH]c(=O)[nH]c2C)cc1 [Enoximone],0.0139
2,N[C@@H](Cn1ccc(=O)c(O)c1)C(=O)O [L-Mimosine from Koa hoale seeds],0.525
3,CC1(C2CCCC2)Cc2cc(OCC(=O)O)c(Cl)c(Cl)c2C1=O (stereo unspecified),0.0296
4,CO[C@H]1O[C@@H]2O[C@@]3(C)CC[C@H]4[C@H](C)CC[C@@H]([C@H]1C)[C@@]24OO3 [Artemether],0.954
5,N#C/C(=C\c1ccc(O)c(O)c1)C(=O)c1ccc(O)c(O)c1 [Tyrphostin AG 538],-0.47
6,NC12CC3CC(CC(C3)C1)C2 [Amantadine hydrochloride],0.0173
7,CC(=O)[C@H]1CC[C@H]2[C@@H]3CC=C4C[C@@H](OS(=O)(=O)O)CC[C@]4(C)[C@H]3CC[C@]12C [Pregnenolone sulfate sodium],0.0635
8,NCC=CC(=O)O (stereo in doubt) [cis-4-Aminocrotonic acid],0.532
9,CN1CCN(C2=Nc3cc(Cl)ccc3Nc3ccccc32)CC1 [Clozapine],0.262
10,O=C(O)c1ccccc1Nc1ccccc1 [N-Phenylanthranilic acid],0.206
11,Brc1ccc([C@H]2CN3CCSC3=N2)cc1 [S(-)-p-Bromotetramisole oxalate],0.185
12,C=CC[C@H](N)C(=O)O [L-allylglycine],-0.0304
13,CC(C)NC[C@H](O)COc1ccc(CC(N)=O)cc1 [S(-)-Atenolol],0.102
14,"c1cnc2c(c1)ccc1cccnc12 [1,10-Phenanthroline monohydrate]",-0.0997
15,CO[C@@]1(NC(=O)CSCC#N)C(=O)N2C(C(=O)O)=C(CSc3nnnn3C)CS[C@@H]21 [Cefmetazole sodium],0.501
16,CN1CCc2cccc3c2[C@H]1Cc1ccc(O)c(O)c1-3 [Apomorphine hydrochloride hemihydrate],-0.23
17,CCC(NC(C)C)C(O)c1ccc(O)c(O)c1 (stereo unspecified) [Isotharine mesylate],0.454
18,NCCCCNCCCN [Spermidine trihydrochloride],-0.058
19,NC(Cc1cccc(-c2ccccc2CP(=O)(O)O)c1)C(=O)O (stereo not drawn) [Phenylbenzene-omega-phosphono-alpha-amino acid],0.0887
20,N[C@H](CO)C(=O)O [D-Serine],0.172
21,CC(C)(C)c1ccc(C(O)CCCN2CCC(C(O)(c3ccccc3)c3ccccc3)CC2)cc1 (stereo unspecified) [Terfenadine],0.479

row,SMILES,cFRET/donor change
1,CC(C)c1ccc2c(c1)c(SC(C)(C)C)c(CC(C)(C)C(=O)O)n2Cc1ccc(Cl)cc1,0.423
2,CC(C)Cn1c(=O)n(C)c(=O)c2[nH]cnc21 [3-Isobutyl-1-methylxanthine],0.0157
3,CCCCOc1cc(CC2CNC(=O)N2)ccc1OC (stereo unspecified),0.0817
4,CN(C)CCCN1c2ccccc2Sc2ccc(Cl)cc21 [Chlorpromazine hydrochloride],0.39
5,Nc1ccn([C@@H]2O[C@H](CO)[C@@H](O)[C@@H]2O)c(=O)n1 [Cytosine-1-beta-D-arabinofuranoside hydrochloride],-0.147
6,Nc1ncnc2c1ncn2C1CCCO1 (stereo unspecified),-0.23
7,N[C@@H](Cc1ccc(O)c(I)c1)C(=O)O [3-Iodo-L-tyrosine],0.0637
8,COc1ccc(CCNc2nc(N3CCc4cc(OC)c(OC)cc4C3)c3cc(OC)c(OC)cc3n2)cc1OC,0.14
9,CCCN(CCc1ccccc1)C1CCc2c(O)cccc2C1 (racemic) [(±)-PPHT hydrochloride],0.728
10,Cc1ccc(S(=O)(=O)NC(=O)NN2CCCCCC2)cc1 [Tolazamide],0.182
11,"C=CCn1c(=O)c2c(nc(-c3ccc(S(=O)(=O)O)cc3)n2C)n(C)c1=O [1-Allyl-3,7-dimethyl-8-p-sulfophenylxanthine]",-0.00281
12,C[N+](C)(C)CCOC(=O)CCC(=O)OCC[N+](C)(C)C [Succinylcholine chloride],0.179
13,CCN1CCc2nc(N)oc2CC1 [B-HT 933 dihydrochloride],0.0293
14,CN(C)c1ccc(O)c2c1C[C@H]1C[C@H]3[C@H](N(C)C)C(O)=C(C(N)=O)C(=O)[C@@]3(O)C(O)=C1C2=O [Minocycline hydrochloride],-0.869
15,CCCCCCCCCC(=O)NC(CN1CCOCC1)[C@H](O)c1ccccc1 (mixture of isomers),0.453
16,CN(Cc1cnc2nc(N)nc(N)c2n1)c1ccc(C(=O)N[C@@H](CCC(=O)O)C(=O)O)cc1 [Methotrexate hydrate],-0.135
17,NC(N)=Nc1nc(CSCC/C(N)=N/S(N)(=O)=O)cs1 [Famotidine],0.138
18,CSc1ccc2c(c1)N(CCC1CCCCN1C)c1ccccc1S2 (stereo unspecified) [Thioridazine hydrochloride],0.238
19,NC1C=CC=C(C(=O)O)C1 (stereo unspecified) [Gabaculine hydrochloride],-0.333
20,CC1=C(/C=C/C(C)=C/C=C/C(C)=C\C(=O)O)C(C)(C)CCC1 [13-cis-retinoic acid],0.06
21,Nc1nc(OCc2ccccc2)c2nc[nH]c2n1 [O6-benzylguanine],-0.0213

row,SMILES,cFRET/donor change
1,Nc1ccc(CCNc2ncnc3c2ncn3C2OC(CO)C(O)C2O)cc1 (stereo unspecified) [N6-2-(4-Aminophenyl)ethyladenosine],0.338
2,COCCOc1cc2ncnc(Cl)c2cc1OCCOC,0.0633
3,CC[N+](CC)(CC)CC(=O)Nc1c(C)cccc1C [Lidocaine N-ethyl bromide quaternary salt],0.292
4,"CN(C)CCC(c1ccc(Br)cc1)c1ccccn1 (single isomer, unassigned; (+)) [(+)-Brompheniramine maleate]",0.114
5,"CC(N)(Cc1ccc(O)c(O)c1)C(=O)O (racemic) [(±)-3-(3,4-dihydroxyphenyl)-2-methyl-DL-alanine]",0.707
6,"C#CCn1c(=O)c2c(ncn2C)n(C)c1=O [3,7-Dimethyl-1-propargylxanthine]",0.279
7,Clc1ccc(N2CCN(Cc3cc4ccccn4n3)CC2)cc1,0.359
8,O=C(O)C1=CCCN(CCON=C(c2ccccc2)c2ccccc2)C1 [NO-711 hydrochloride],-0.895
9,O=C1CCCC(=O)C1C(=O)c1ccc(C(F)(F)F)cc1[N+](=O)[O-] [Nitisinone],0.0147
10,COCCc1ccc(OCC(O)CNC(C)C)cc1 (racemic) [(±)-Metoprolol (+)-tartrate],0.301
11,CNC(=N)NCCC[C@H](N)C(=O)O [NG-Monomethyl-L-arginine acetate],0.341
12,CN1Cc2c(N)cccc2C(c2ccccc2)C1 (stereo unspecified) [Nomifensine maleate],-0.996
13,NS(=O)(=O)c1ccc(-n2nc(C(F)(F)F)cc2-c2ccc(Cl)cc2)cc1,0.219
14,COc1cccc(C(=O)NCCN2CCN(c3ccc(Cl)cc3)CC2)c1,0.474
15,O=C(c1ccccc1)c1ccc2n1CCC2C(=O)O (stereo unspecified) [Ketorolac tris salt],0.472
16,CCN(CC)CCCCCCCCOC(=O)c1cc(OC)c(OC)c(OC)c1 [TMB-8 hydrochloride],0.185
17,CCCCN(CC)c1nc(C)nc2c1c(C)cn2-c1c(C)cc(C)cc1C,0.353
18,O=C(O)CP(=O)(O)O [Phosphonoacetic acid],0.0105
19,Cn1ccc2cc3c(cc21)CCN3C(=O)Nc1cccnc1,-0.716
20,C[C@@H]1C(=O)NC2=Nc3cccc(Cl)c3CN21 [Quazinone],-0.428
21,Cc1cc(N)c2ccccc2[n+]1CCCCCCCCCC[n+]1c(C)cc(N)c2ccccc21 [Dequalinium chloride hydrate],-0.102

# As entered above:
# cFRET/donor change, CCN(CC)CCCCCCCCOC(=O)c1cc(OC)c(OC)c(OC)c1 [TMB-8 hydrochloride] is entered as 0.185
# cFRET/donor change, CCCCN(CC)c1nc(C)nc2c1c(C)cn2-c1c(C)cc(C)cc1C is entered as 0.353
# cFRET/donor change, Cc1cc(N)c2ccccc2[n+]1CCCCCCCCCC[n+]1c(C)cc(N)c2ccccc21 [Dequalinium chloride hydrate] is entered as -0.102
# cFRET/donor change, CN1Cc2c(N)cccc2C(c2ccccc2)C1 (stereo unspecified) [Nomifensine maleate] is entered as -0.996

# (cont.)

row,SMILES,cFRET/donor change
1,O=C1C(SCCO)=C(SCCO)C(=O)c2ccccc21,0.938
2,"Nc1ccc2c3c(cccc13)C(=O)NC2=O [4-Amino-1,8-naphthalimide]",-0.148
3,CN(C)CCCN1c2ccccc2CCc2ccccc21 [Imipramine hydrochloride],0.511
4,"Cc1cccc(C(=O)NCN2CCN(c3ccccc3C#N)CC2)c1 [PD 168,077 maleate]",-0.217
5,NC(CO)C(=O)NNCc1ccc(O)c(O)c1O (stereo unspecified) [Benserazide hydrochloride],-0.147
6,Fc1ccc([C@@H]2CCNC[C@H]2COc2ccc3c(c2)OCO3)cc1 [Paroxetine hydrochloride hemihydrate (MW = 374.83)],0.308
7,CC1COc2c(N3CCN(C)CC3)c(F)cc3c(=O)c(C(=O)O)cn1c23 (stereo unspecified) [Ofloxacin],0.316
8,O=C(O)/C=C/c1cnc[nH]1 [4-Imidazoleacrylic acid],0.18
9,CC1(C)CCC2=C(O1)c1ccccc1C(=O)C2=O [beta-Lapachone],1.3
10,C[C@H](c1ccc(F)cc1CCCC(=O)O)N(c1cc(F)ccc1F)S(=O)(=O)c1ccc(Cl)cc1,0.476
11,Cn1cnc([N+](=O)[O-])c1Sc1ncnc2[nH]cnc12 [Azathioprine],0.496
12,O=C(CCCN1CCC(O)(c2cccc(C(F)(F)F)c2)CC1)c1ccc(F)cc1 [Trifluperidol hydrochloride],0.549
13,COc1ccccc1N1CCN(CCCNc2cc(=O)n(C)c(=O)n2C)CC1 [Urapidil hydrochloride],-0.071
14,COCC(=O)O[C@]1(CCN(C)CCCc2nc3ccccc3[nH]2)CCc2cc(F)ccc2[C@@H]1C(C)C [Mibefradil dihydrochloride],0.902
15,O=c1c2ccccc2nc2n1CCc1c-2[nH]c2ccccc12 [Rutaecarpine],0.0519
16,CN(C)c1ccccc1CN1CCCN(Cc2ccccc2N(C)C)C1c1ccncc1,0.598
17,O=C(O)CN(CCN(CC(=O)O)CC(=O)O)CCN(CC(=O)O)CC(=O)O [Diethylenetriaminepentaacetic acid],0.22
18,CC(C)(CO)Cc1cc(C(C)(C)C)c(O)c(C(C)(C)C)c1,0.391
